Data on 2 compounds can be found in US6495065B1, “Nitrosamine-inhibiting compositions for shortstopping of free radical emulsion polymerizations” (Atofina Chemicals, Inc., priority 1999, dated 2002).

Data set [1] is described as follows: Nitrosamines in SBR latex (unreacted monomers removed), gas chromatography with thermal energy analyzer.
A short description of data set [2]: Nitrosamines in SBR rubber (coagulated, dried, rolled), gas chromatography with thermal energy analyzer. To be noted: Table 1; shortstopper 400 ppm NiPHA; inhibitor 1000 ppm in NiPHA (~400 ppb in latex).
Setting [3] is: Table 2, shortstopper 350 ppm DEHA, inhibitor 1250 ppm in shortstopper (~450 ppb in latex), DEA ~450 ppb.

Take `CCN` [MEA, monoethylamine]: in data set [1] (setting [3]), the “Nitrosamine in latex: NDEA (N-nitrosodiethylamine)” value stood at 2 ppb and the “Nitrosamine in latex: NDMA” value came to 1 ppb. In addition, the “Nitrosamine in rubber: NDBA (N-nitrosodibutylamine)” value in data set [2] is recorded as 4 ppb.
Take `CC(C)NO` [NiPHA, N-isopropylhydroxylamine, reference compound]: the Nitrosamine in latex entry in data set [1] (Table 1, shortstopper 400 ppm NiPHA, inhibitor 1000 ppm in NiPHA (0 for NiPHA alone), ND = none detected, limit of detection 1 ppb) was “does not yield nitrosamines”.
